Assay results as given in paper PMC8776986.
No signal at the amounts used counts as a negative.

Protein sequences, listed by entry. Tags and fused reporters are not part of them. Residues count along the entry.
UniProt P02769, 25-607: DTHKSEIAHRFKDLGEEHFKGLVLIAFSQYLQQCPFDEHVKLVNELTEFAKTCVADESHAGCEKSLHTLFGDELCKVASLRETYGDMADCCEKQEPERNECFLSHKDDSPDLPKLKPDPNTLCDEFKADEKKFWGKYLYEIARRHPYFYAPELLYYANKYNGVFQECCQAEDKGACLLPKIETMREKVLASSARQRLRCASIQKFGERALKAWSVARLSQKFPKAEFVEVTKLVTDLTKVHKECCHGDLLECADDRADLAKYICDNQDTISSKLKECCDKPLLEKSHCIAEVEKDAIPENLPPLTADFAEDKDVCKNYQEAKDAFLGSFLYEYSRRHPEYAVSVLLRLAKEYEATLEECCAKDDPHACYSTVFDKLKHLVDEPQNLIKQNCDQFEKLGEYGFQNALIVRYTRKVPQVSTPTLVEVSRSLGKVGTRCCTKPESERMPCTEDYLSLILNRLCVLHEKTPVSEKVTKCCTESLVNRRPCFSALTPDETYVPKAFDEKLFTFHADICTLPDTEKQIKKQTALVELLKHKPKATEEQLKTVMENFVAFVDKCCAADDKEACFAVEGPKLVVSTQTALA

Legend:
[1] = molecular target: bovine serum protein (BSA) (bovine) (UniProt P02769); assay: electrochemical aptasensor (DPV, MB release); details: same concentration as thrombin; Sensor rinsed in PBS, pH 7.0 buffer; aptamer hybridized 60 min at room temperature; thrombin reaction 40 min; binding buffer salt and temperature not stated; commercial protein; label: methylene blue adsorbed non-covalently
[2] = molecular target: human serum protein (HSA) (human) (UniProt P02768); assay: electrochemical aptasensor (DPV, MB release); details: same concentration as thrombin; Sensor rinsed in PBS, pH 7.0 buffer; aptamer hybridized 60 min at room temperature; thrombin reaction 40 min; binding buffer salt and temperature not stated; commercial protein; label: methylene blue adsorbed non-covalently

**Q.** Which results are given for CACTGTGGTTGGTGTGGTTGG / CCAACCACAGTG?
**A.** binding result [1]: no binding; binding result [2]: no binding
